Laboratory results from PMC12582992.
Results are given in words; binding and its absence hold for the method and conditions named. Binding seen in cells or lysates may run through a third protein. Some results given as binding are weak or reduced against the parent protein; the word gives no strength. Values belong to the molecule of their own block, whether it stands above or below them.

By UniProt entry, the sequences of proteins in these tests, tags left out.
UniProt Q9UFF9: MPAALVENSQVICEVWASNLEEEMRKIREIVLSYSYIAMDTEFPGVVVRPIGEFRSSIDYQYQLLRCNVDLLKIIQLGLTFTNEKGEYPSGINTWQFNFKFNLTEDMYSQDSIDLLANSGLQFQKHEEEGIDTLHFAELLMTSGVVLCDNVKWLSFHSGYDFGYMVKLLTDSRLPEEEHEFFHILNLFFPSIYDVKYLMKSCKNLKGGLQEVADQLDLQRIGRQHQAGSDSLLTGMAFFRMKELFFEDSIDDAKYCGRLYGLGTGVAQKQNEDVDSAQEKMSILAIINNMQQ

Assays:
[1] = molecular target: Flag-tagged CNOT9 WT (human) (UniProt Q92600); assay: co-IP; FLAG-tagged bait expressed in HEK293T cells, TNE lysis buffer (1% NP-40, 50 mM Tris/HCl pH 7.5, 150 mM NaCl, 1 mM EDTA), anti-FLAG antibody 1 h and Protein G Sepharose 2 h at 4 °C, endogenous partners by immunoblotting; the paper calls it a pull-down assay
[2] = molecular target: FLAG-CNOT1 (1318–1589) (human) (UniProt A5YKK6); assay: as above
[3] = molecular target: FLAG-CNOT1 (1473–1537) (human) (UniProt A5YKK6); assay: as above
[4] = molecular target: CNOT3 (human (endogenous in HeLa)) (UniProt O75175); assay: co-IP; immunoprecipitation with anti-CNOT3 antibody from WT or CNOT9 KO HeLa cells, western blotting
[5] = molecular target: CNOT3 (human (endogenous in HEK293T)) (UniProt O75175); assay: co-IP; immunoprecipitation with anti-CNOT2 and CNOT3 antibodies from HEK293T cells, western blotting
[6] = molecular target: CNOT2 (human (endogenous in HEK293T)) (UniProt Q9NZN8); assay: as above

Molecule: CNOT3 (from UniProt O75175 1-753)
binding [2]: no binding

Molecule: CNOT8 (from UniProt Q9UFF9 1-292)
binding [2]: no binding

B1: RNF219 (protein, UniProt Q5W0B1 1-726)
chain: MAQTVQNVTLSLTLPITCHICLGKVRQPVICINNHVFCSICIDLWLKNNSQCPACRVPITPENPCKEIIGGTSESEPMLSHTVRKHLRKTRLELLHKEYEDEIDCLQKEVEELKSKNLSLESQIKTILDPLTLVQGNQNEDKHLVTDNPSKINPETVAEWKKKLRTANEIYEKVKDDVDKLKEANKKLKLENGGLVRENLRLKAEVDNRSPQKFGRFAVAALQSKVEQYERETNRLKKALERSDKYIEELESQVAQLKNSSEEKEAMNSICQTALSADGKGSKGSEEDVVSKNQGDSARKQPGSSTSSSSHLAKPSSSRLCDTSSARQESTSKADLNCSKNKDLYQEQVEVMLDVTDTSMDTYLEREWGNKPSDCVPYKDEELYDLPAPCTPLSLSCLQLSTPENRESSVVQAGGSKKHSNHLRKLVFDDFCDSSNVSNKDSSEDDISRSENEKKSECFSSPKTGFWDCCSTSYAQNLDFESSEGNTIANSVGEISSKLSEKSGLCLSKRLNSIRSFEMNRTRTSSEASMDAAYLDKISELDSMMSESDNSKSPCNNGFKSLDLDGLSKSSQGSEFLEEPDKLEEKTELNLSKGSLTNDQLENGSEWKPTSFFLLSPSDQEMNEDFSLHSSSCPVTNEIKPPSCLFQTEFSQGILLSSSHRLFEDQRFGSSLFKMSSEMHSLHNHLQSPWSTSFVPEKRNKNVNQSTKRKIQSSLSSASPSKATKS
binding [4]: binds

B2: RNF219, ring finger protein 219 (protein, UniProt Q5W0B1 1-726)
chain: B1 chain
binding [5]: binds | binding [6]: binds

Results, then the molecule that gave them:

binding [1]: binds
Molecule: CNOT1 (from UniProt A5YKK6 1-2376)

binding [3]: no binding | binding [2]: binds
Molecule: CNOT9 (from UniProt Q92600 1-299)
